*: point of attachment. Biotin = O=C1N[C@H]2[C@H](CS[C@H]2CCCCC(=O)*)N1
Assay: general procedure: Fmoc solid-phase peptide synthesis; Rink-amide 4-methylbenzhydrylamine (MBHA) resin
Conditions: late stage modification step

Row | Substance | step yield [%]
1 | Biotin-GCGGCGLGCGGACR-NH2 (cysteine pairing not given here) | 95
2 | H-VGCAEKSL-NH2 | >95
3 | H-WACYKSL-NH2 | 95
4 | Ac-FQPKCG-NH2 | >95
5 | Biotin-GKGGACRHRKVLRDN-NH2 | >95

Reference: US9309278 (dated 2016)
